Source: the supplement of paper PMC12067093, “Discovery and optimisation of a covalent ligand for TRIM25 and its application to targeted protein ubiquitination” (Chemical Science, 2025)
Some of the results follow.

The chains behind the UniProt entries cited, without tags or fusion partners. Where a name states a change or a piece, a line headed by the entry shows the natural chain unless it says otherwise.
UniProt Q9NW13: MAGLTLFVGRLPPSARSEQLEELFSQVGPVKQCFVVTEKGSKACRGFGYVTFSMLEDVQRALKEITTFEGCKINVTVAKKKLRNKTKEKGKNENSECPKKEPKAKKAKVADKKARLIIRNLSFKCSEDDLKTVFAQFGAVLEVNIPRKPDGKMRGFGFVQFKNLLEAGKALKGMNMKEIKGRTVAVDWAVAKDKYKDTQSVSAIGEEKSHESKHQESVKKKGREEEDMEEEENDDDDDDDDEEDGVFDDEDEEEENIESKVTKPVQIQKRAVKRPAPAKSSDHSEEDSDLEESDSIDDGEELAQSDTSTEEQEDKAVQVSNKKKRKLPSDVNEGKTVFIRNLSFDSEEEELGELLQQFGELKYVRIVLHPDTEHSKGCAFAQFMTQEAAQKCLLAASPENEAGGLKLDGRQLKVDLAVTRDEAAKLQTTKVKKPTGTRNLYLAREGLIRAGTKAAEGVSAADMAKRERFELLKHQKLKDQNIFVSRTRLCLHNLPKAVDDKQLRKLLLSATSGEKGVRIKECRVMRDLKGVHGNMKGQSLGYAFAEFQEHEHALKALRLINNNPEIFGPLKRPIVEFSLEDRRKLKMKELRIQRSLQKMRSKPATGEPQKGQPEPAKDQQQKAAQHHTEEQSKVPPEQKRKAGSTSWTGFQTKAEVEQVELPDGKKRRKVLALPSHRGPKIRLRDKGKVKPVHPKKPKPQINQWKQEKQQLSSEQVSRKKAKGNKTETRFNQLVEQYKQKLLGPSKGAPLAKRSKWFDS
UniProt Q7Z5J4: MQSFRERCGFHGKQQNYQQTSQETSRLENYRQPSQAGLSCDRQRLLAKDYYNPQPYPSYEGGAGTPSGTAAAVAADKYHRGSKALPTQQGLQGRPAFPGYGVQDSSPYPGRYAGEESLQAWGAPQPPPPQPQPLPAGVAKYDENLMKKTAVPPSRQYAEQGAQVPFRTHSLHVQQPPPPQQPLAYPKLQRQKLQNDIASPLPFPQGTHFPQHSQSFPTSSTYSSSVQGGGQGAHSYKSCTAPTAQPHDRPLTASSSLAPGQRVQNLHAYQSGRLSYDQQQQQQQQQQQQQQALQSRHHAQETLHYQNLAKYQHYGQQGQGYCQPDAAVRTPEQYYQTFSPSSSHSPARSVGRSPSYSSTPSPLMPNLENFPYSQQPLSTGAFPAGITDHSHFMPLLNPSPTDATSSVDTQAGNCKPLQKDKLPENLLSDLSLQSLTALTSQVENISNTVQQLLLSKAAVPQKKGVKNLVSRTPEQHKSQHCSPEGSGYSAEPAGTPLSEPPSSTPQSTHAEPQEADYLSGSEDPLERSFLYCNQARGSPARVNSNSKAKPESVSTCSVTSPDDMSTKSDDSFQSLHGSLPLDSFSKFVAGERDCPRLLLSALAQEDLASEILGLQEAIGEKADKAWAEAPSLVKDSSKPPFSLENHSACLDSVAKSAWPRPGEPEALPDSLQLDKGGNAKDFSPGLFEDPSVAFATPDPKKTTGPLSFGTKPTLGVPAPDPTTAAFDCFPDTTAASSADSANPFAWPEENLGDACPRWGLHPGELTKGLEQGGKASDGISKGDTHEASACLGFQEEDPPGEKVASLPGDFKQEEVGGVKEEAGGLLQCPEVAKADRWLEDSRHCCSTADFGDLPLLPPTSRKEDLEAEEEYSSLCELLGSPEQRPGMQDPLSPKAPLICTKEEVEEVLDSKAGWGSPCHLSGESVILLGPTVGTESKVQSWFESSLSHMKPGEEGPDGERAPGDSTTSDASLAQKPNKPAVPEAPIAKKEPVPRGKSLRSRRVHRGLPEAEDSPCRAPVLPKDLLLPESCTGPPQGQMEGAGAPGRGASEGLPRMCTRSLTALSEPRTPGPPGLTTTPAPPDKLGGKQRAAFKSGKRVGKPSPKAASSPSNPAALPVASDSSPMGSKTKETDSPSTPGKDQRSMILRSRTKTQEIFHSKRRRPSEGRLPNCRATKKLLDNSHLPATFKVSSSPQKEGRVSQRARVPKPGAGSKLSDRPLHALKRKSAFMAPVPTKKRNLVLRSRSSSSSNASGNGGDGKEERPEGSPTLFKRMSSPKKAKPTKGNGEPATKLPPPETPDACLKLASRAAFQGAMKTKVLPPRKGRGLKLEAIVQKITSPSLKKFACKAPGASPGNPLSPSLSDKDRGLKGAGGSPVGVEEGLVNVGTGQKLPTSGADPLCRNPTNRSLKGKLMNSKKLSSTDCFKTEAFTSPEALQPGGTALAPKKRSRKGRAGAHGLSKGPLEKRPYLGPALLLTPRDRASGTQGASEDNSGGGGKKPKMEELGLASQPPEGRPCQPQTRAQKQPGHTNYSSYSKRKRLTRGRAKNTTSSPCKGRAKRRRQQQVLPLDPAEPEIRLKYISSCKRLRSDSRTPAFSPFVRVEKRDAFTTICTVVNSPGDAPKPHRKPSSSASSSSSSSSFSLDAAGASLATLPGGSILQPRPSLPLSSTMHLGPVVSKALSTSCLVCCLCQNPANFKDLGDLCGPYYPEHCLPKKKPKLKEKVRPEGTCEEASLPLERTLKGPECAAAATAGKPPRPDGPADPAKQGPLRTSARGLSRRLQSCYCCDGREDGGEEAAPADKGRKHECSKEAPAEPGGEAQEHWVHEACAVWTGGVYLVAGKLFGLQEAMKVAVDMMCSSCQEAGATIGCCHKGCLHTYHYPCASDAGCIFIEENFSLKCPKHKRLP
UniProt P18754: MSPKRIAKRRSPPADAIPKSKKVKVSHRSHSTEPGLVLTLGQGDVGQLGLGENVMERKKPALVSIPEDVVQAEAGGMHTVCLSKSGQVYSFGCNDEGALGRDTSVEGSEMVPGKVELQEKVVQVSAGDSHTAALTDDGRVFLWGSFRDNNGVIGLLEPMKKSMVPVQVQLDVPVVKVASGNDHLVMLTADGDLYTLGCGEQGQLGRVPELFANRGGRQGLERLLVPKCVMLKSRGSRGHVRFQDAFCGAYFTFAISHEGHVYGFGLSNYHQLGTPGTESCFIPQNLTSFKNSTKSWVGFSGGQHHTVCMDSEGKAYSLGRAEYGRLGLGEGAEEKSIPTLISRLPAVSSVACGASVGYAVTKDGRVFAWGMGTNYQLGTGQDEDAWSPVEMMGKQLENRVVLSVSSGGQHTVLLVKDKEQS
UniProt O60518: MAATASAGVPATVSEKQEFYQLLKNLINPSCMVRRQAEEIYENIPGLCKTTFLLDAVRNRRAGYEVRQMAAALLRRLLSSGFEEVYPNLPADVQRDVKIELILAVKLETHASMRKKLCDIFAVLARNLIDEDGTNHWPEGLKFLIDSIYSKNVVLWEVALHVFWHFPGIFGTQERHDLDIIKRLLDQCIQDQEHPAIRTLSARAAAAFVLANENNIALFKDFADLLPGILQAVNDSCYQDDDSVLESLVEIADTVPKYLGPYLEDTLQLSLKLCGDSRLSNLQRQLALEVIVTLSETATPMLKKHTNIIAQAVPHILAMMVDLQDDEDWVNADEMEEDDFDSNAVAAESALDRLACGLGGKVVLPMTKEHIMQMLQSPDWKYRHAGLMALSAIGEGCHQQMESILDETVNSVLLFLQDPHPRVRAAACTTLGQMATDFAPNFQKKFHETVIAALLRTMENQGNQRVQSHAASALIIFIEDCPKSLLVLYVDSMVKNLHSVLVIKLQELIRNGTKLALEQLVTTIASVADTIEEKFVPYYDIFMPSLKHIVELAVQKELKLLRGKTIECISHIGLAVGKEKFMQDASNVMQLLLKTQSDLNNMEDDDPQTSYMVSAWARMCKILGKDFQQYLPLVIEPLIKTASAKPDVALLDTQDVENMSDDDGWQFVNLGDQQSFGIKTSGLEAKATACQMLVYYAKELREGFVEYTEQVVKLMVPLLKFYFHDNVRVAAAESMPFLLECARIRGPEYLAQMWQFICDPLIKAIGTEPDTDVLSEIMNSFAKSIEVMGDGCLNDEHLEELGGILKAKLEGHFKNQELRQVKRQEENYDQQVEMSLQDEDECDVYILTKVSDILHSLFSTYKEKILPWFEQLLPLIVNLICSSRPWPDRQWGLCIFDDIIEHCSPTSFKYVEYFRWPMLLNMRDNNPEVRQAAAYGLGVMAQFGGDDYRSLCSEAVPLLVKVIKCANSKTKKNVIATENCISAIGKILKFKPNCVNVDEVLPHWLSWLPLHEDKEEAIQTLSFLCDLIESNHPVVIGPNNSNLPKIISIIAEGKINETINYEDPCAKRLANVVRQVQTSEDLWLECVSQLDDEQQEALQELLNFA
UniProt Q9UJF2: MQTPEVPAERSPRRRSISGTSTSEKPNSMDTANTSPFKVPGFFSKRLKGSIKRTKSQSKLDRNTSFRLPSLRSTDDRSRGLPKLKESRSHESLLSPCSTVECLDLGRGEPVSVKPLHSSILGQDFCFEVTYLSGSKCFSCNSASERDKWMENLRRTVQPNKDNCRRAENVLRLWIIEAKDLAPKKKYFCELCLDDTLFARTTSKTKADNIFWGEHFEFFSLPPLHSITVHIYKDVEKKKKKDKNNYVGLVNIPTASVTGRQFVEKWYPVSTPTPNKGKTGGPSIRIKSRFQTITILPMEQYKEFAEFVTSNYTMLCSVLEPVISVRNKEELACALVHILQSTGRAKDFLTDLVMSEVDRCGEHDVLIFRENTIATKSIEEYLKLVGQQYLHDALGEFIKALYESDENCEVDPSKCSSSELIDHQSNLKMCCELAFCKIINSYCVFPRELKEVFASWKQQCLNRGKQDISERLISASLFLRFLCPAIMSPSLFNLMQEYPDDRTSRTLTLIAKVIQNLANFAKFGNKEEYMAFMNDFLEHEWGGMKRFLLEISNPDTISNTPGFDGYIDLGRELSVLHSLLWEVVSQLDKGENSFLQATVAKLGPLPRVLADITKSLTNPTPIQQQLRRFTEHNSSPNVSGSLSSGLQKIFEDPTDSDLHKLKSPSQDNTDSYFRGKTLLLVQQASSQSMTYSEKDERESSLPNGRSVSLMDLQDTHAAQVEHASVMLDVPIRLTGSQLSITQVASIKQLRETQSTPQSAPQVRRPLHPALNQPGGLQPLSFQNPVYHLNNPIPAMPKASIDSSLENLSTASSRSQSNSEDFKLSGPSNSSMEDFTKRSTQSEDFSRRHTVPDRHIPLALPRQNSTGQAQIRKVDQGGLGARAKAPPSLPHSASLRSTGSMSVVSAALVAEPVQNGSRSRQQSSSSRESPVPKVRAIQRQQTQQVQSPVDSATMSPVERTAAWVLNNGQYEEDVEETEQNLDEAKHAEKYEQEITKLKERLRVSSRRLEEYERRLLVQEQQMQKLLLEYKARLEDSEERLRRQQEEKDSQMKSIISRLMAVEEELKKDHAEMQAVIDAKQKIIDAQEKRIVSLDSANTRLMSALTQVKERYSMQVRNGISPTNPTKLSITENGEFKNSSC
UniProt Q9UKM9: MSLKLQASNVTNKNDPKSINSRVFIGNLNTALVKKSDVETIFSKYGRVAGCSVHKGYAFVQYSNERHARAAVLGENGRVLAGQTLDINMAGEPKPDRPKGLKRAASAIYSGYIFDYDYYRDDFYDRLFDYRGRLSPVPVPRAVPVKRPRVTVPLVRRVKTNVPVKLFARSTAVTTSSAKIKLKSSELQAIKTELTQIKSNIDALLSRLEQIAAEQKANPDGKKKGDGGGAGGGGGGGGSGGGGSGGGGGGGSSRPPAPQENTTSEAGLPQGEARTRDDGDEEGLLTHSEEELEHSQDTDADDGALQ
UniProt P49756, whole entry, looked up: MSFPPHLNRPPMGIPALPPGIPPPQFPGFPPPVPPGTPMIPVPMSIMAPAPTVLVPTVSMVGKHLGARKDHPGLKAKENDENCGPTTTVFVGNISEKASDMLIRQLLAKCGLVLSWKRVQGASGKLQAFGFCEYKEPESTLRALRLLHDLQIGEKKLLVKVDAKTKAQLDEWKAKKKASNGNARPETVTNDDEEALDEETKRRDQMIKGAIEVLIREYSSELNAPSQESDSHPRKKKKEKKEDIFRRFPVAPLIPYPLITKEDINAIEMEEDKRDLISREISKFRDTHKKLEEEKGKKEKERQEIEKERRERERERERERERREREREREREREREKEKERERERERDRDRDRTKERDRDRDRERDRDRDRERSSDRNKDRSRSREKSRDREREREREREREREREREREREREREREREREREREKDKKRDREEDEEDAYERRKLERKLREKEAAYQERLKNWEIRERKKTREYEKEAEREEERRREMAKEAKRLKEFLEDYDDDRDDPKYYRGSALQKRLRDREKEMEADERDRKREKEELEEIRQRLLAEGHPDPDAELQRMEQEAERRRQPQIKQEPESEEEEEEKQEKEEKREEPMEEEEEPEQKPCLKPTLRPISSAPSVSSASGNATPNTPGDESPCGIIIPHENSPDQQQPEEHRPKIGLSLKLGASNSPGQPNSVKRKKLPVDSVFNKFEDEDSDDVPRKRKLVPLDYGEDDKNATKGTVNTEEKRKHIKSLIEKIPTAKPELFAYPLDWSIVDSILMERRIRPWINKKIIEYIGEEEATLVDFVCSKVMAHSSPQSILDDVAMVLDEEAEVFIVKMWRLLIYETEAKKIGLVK

Compound: CC1Cc2ccccc2N1C(=O)C1CCCN(C1)C(=O)CCl (mixture of isomers) [TRIM25 ligand 11 (diastereomer mixture)]
Assay: probe-labelled cysteine peptide fold change vs DMSO (competition) (log2 fold change); higher = less target engagement (more negative = stronger competition)
Conditions: THP-1, incubation time: 4 h
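Also: competitive chemoproteomic profiling in live THP-1 cells with an iodoacetamide desthiobiotin (IA-DTB) probe, comparing probe-labelled peptide intensities in compound-treated cells against DMSO-treated controls.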

Row | Target | probe-labelled cysteine peptide fold change (10 µM) | probe-labelled cysteine peptide fold change (50 µM)
1 | RBM28_Q9NW13_71_EITTFEGCK (UniProt Q9NW13) | -0.0134 | 0.0154
2 | RAD54L2_Q9Y4B4_1143_MAASGSQGPSCESTSNGR (UniProt Q9Y4B4) | 0.113 | -0.0522
3 | RANBP3_Q9H6Z4_228_SPSEAADEVCALEEK (UniProt Q9H6Z4) | 0.276 | -0.174
4 | RANBP2_P49792_1375_CVSCQNLNPSNK (UniProt P49792) | 0.0315 | 0.125
5 | RAI1_Q7Z5J4_40_QPSQAGLSCDR (UniProt Q7Z5J4) | -0.0619 | -0.257
6 | RANBP2_P49792_1552_EGQWDCSSCLVR (UniProt P49792) | -0.0598 | 0.00525
7 | RC3H1_Q5TC82_143_LVTLVHCQLVEEEGR (UniProt Q5TC82) | -0.0878 | 0.288
8 | RCC1_P18754_308_SWVGFSGGQHHTVCMDSEGK (UniProt P18754) | -0.101 | -0.0751
9 | RBBP4_Q09028_167_HPSKPDPSGECNPDLR (UniProt Q09028) | 0.111 | -0.157
10 | RBFA_Q8N0V3_136_VSLTPDFSACR (UniProt Q8N0V3) | -0.194 | 0.0213
11 | RANBP6_O60518_741_VAAAESMPFLLECAR (UniProt O60518) | 0.0327 | -0.00855
12 | RB1_P06400_283_EHECNIDEVK (UniProt P06400) | -0.00825 | 0.0246
13 | RAI1_Q7Z5J4_1729_VRPEGTCEEASLPLER (UniProt Q7Z5J4) | -0.151 | -0.188
14 | RBBP7_Q16576_202_EGYGLSWNSNLSGHLLSASDDHTVCLWDINAGPK (UniProt Q16576) | 0.0782 | -0.152
15 | RBBP7_Q16576_166_HPAKPDPSGECNPDLR (UniProt Q16576) | -0.0467 | -0.136
16 | RAPGEF1_Q13905_958_QTSEGLAEYCTLIDSSSSFR (UniProt Q13905) | -0.129 | -0.121
17 | RBM12B_Q8IXT5_837_CPSDEDFR (UniProt Q8IXT5) | 0.191 | 0.083

Row | Target | probe-labelled cysteine peptide fold change (10 µM) | probe-labelled cysteine peptide fold change (50 µM)
18 | RASSF4_Q9H2L5_33_TYNCYHEGK (UniProt Q9H2L5) | -0.11 | 0.0698
19 | RASSF2_P50749_12_MDYSHQTSLVPCGQDK (UniProt P50749) | 0.155 | -0.142
20 | RASAL2_Q9UJF2_333_NKEELACALVHILQSTGR (UniProt Q9UJF2) | 0.0398 | 0.0203
21 | RANBP2_P49792_1749_CIACQCPSK (UniProt P49792) | -0.032 | 0.157
22 | RBM34_P42696_196_TVFVGNLPVTCNK (UniProt P42696) | -0.0442 | -0.11
23 | RCC1_P18754_93_SGQVYSFGCNDEGALGR (UniProt P18754) | 0.0702 | 0.0939
24 | RALY_Q9UKM9_51_VAGCSVHK (UniProt Q9UKM9) | 0.114 | 0.0617
25 | RBBP6_Q7Z6E9_280+283_DIMTDAVVIPCCGNSYCDECIR (UniProt Q7Z6E9) | -0.45 | -0.0457
26 | RBBP4_Q09028_278_PSHSVDAHTAEVNCLSFNPYSEFILATGSADK (UniProt Q09028) | 0.24 | 0.154
27 | RBBP5_Q15291_73_IISAHIHPVCSLCWSR (UniProt Q15291) | -0.0205 | 0.278
28 | RANBP6_O60518_188_LLDQCIQDQEHPAIR (UniProt O60518) | -0.191 | -0.139
29 | RANBP2_P49792_1243_ICANHYISPDMK (UniProt P49792) | 0.0377 | -0.0178
30 | RBM28_Q9NW13_490_LCLHNLPK (UniProt Q9NW13) | 0.0314 | 0.0289
31 | RCC2_Q9P258_305_AQRIEYDCELVPR (UniProt Q9P258) | -0.313 | -0.0516
32 | RANBP2_P49792_1424_EGHWDCSICLVR (UniProt P49792) | 0.109 | 0.0853
33 | RBM25_P49756_83_AKENDENCGPTTTVFVGNISEK (UniProt P49756) | -0.237 | -0.334
34 | RARS_P54136_369_IVFVPGCSIPLTIVK (UniProt P54136) | -0.0819 | 0.0673
